Measurements reported in PubChem BioAssay AID1671195 (Yale University, 2021)
The whole screen tested about 22,000 reagents; below is an unselected part. About 1,510 of all reagents (6.9%) count as active. 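Active includes knockdowns raising or lowering LDL uptake; positive z-scores mean more uptake, negative mean less.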 The numbers tell different reagents against one gene apart.

- Assay: 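Regulators of LDL receptor activity judged by labelled LDL uptake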 (primary screen)
- System: human Huh7 hepatoma cells
- Reagents: siRNA pool against human genes, 18 nM
- Timing: about 2 to 2.5 days of knockdown, then 8 h LDL uptake
- Challenge: DiI-labelled LDL at 30 µg/ml for 8 h, in lipoprotein-deficient serum medium
- Read-out: 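Per-cell DiI-LDL intensity by automated imaging; well means scaled to the plate median and given as a robust z-score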
- Scale: robust z-score: higher = more LDL uptake after knockdown
- Rule for the call: 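a gene counts as active if at least two replicate z-scores exceed ±2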

Depletion of SIN3A (GeneID 25942) gave: robust z-score, replicate 1 = 0.356; robust z-score, replicate 2 = 0.18; robust z-score, replicate 3 = -0.579; inactive.
Against KLK5 (GeneID 25818), the entry reads robust z-score, replicate 1 = 0.221; robust z-score, replicate 2 = 0.175; robust z-score, replicate 3 = 0.794; inactive.
Against SLC4A3 (GeneID 6508), the values are robust z-score, replicate 1 = 0.0907; robust z-score, replicate 2 = -0.104; robust z-score, replicate 3 = 0.023; inactive.
Against CD86 (GeneID 942) the deposit lists robust z-score, replicate 1 = -1.26; robust z-score, replicate 2 = -0.774; robust z-score, replicate 3 = 0.139; inactive.
After knock-down of HERPUD1 (GeneID 9709), the screen gave robust z-score, replicate 1 = -1.1; robust z-score, replicate 2 = -1.7; robust z-score, replicate 3 = -2.24; active.
Depletion of LOC440805 (retired record) (GeneID 440805) came out at: robust z-score, replicate 1 = 2.39; robust z-score, replicate 2 = 2.3; robust z-score, replicate 3 = 2.4; active.
RNF185 (GeneID 91445) scored robust z-score, replicate 1 = -0.602; robust z-score, replicate 2 = -0.659; robust z-score, replicate 3 = -0.427; inactive.

2 entries from above, ordered by “robust z-score, replicate 3”, lowest first:
SIN3A (GeneID 25942) — robust z-score, replicate 1 = 0.356; robust z-score, replicate 2 = 0.18; robust z-score, replicate 3 = -0.579; call = inactive
KLK5 (GeneID 25818) — robust z-score, replicate 1 = 0.221; robust z-score, replicate 2 = 0.175; robust z-score, replicate 3 = 0.794; call = inactive

The listing continues:
Depletion of IP6K2 (GeneID 51447) gave: robust z-score, replicate 1 = 2.73; robust z-score, replicate 2 = 0.0216; robust z-score, replicate 3 = 2.07; active.
PLCG2 (GeneID 5336) showed robust z-score, replicate 1 = -0.719; robust z-score, replicate 2 = -0.962; robust z-score, replicate 3 = -1.31; inactive.
Against SORL1 (GeneID 6653) the deposit lists robust z-score, replicate 1 = 0.138; robust z-score, replicate 2 = 0.144; robust z-score, replicate 3 = -0.168; inactive.
For WNK1 (GeneID 65125) #1, the values are robust z-score, replicate 1 = 5.21; robust z-score, replicate 2 = 4.87; robust z-score, replicate 3 = 7.48; active.
Depletion of WNK1 (GeneID 65125) #2 gave: robust z-score, replicate 1 = 0.708; robust z-score, replicate 2 = 0.573; robust z-score, replicate 3 = 0.299; inactive.
